The values that follow come from PubChem BioAssay AID1347423 (Functional Genomics Laboratory (NCATS/FGL), 2020).

Screen size: about 52,000 sequences; about 210 (0.4%) were called active.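 Rule for the calls: active = gene whose silencing raises cell survival under the drug, median off-target-corrected z-score across its silencing RNAs 2 or more; inactive = the rest.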 This is one part of the list.

The experiment in a line: Resistance to Poly (ADP-Ribose) Polymerase inhibitor: Gene Identification via Genome-wide siRNA Screen. Conditions: mouse BRCA2 R2336H ES cells, olaparib, CellTiter-Glo viability; stronger effect = higher value. The method, boiled down:
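Genome-wide siRNA screen (3 siRNAs/gene, 20 nM) in mouse ES cells carrying hypomorphic BRCA2 R2336H; olaparib 500 nM added 48 h post-transfection, CellTiter-Glo viability 72 h later. Normalized to plate-median negative control; MAD z-scores, gene median, seed-adjusted.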
With “GGAUUAGGAAAGAGAGAACTT against 4930519G04Rik”, the z-score is inactive: 0.231. For the sequence GGUGAACCACGAGAAGAGUTT against Hk1, the z-score was inactive: -0.525. The figure for “GCCCAGUCUUGAUUAUCUATT against 0610006O14Rik” is inactive: 1.01.

On to GGAACACUUCAUCAGUCAGTT against Chrnb3, for which the z-score was inactive: -2.41. In the case of GGUCCAGAGAAGGCAAGCUTT against Elf3, the z-score was inactive: -0.0237.

As to “GGGUCGGGUUUCCUAAAGATT against A230048G03Rik”, the z-score is inactive: -0.0336. Then GGAUUAUUAGCACUGCUAGTT against Oaz2, with inactive: -0.36; and “GGACCUGAGAGACUCUUUGTT against 1500005N04Rik”, with inactive: -0.738. The figure for GGAAGAAAAGUAUUACAGCTT against Itgb3bp is inactive: 0.115; for GCACUAAACGUGAAGGAGUTT against Npl it is inactive: -0.0845.

Take “GGGAUUUCACUCCCUAAAGTT against 1700024C24Rik”: the z-score was inactive: 0.501. The figure for “CCAUCUGUAACGGAUCUGATT against 2010316F05Rik” is inactive: -1.89; for “GGCACCCUAUUUGUCAACGTT against 6430402H13Rik” it is inactive: 0.0438; for GCUAUGUGACCAGAACGAGTT against Tsc2 it is inactive: 0.313. For the sequence GGUGGGACUUGAUUUUUCUTT against Lrrfip1, the z-score is inactive: 1.29. Regarding “GGAUCAGCCCAUCUACUUGTT against 1110060M21Rik”, the z-score is inactive: 0.574. Consider GAGGAAAGAAUAGACAAGATT against Psx1, for which the z-score is inactive: 0.366. The figure for GGCAAACUGUCUCUUCAGATT against Pim1 is inactive: 0.612. The figure for GGAAGAAAUAGAGUUUUACTT against Ephx2 is inactive: -0.248; for GGCCAAAAAGGAGGCACCATT against Rps15 it is inactive: -2.85. On to CCUGUUAAGAUCAAUCUCATT against Ldh3, for which the z-score is inactive: -0.0884. The figure for CCAUUAACUCUUUGAGUAUTT against Omg is inactive: -1.46; for GGCUUGAAUGCCACAGCUGTT against Slc26a6 it is inactive: 0.265. Then GGCUGCAUGACCCAAUUGUTT against Olfr1221, with inactive: -0.00602; and GCUUCUUAUGAAAAGAUGCTT against Epc2, with inactive: 0.0697. For “CCUCUAACAUACGUAAGUUTT against 1200016B17Rik”, the z-score was inactive: 0.364. Then CCUAACUGAAUUUUUCGUGTT against Cse1l, with inactive: -0.157; and “GGAAUUCAGUGAAUGUCAUTT against 4432404J10Rik”, with inactive: 2.34; and “GGCUUUGUAUAUCUUAUCGTT against 9030227G01Rik”, with inactive: 1.82. Then GCUGUCGAUAGAAAAAAUCTT against Scml2, with inactive: 0.164; and GACUUCUUCCUUUGCUAACTT against Cd1d2, with inactive: 0.857; and GGACUGCUACUUUUAUUUUTT against Serpinb9e, with inactive: 0.0745. Then GGGCAGUCUGAUAGAGGAUTT against Adam30, with inactive: -1.06; and “GGAAUAGGUUGGAUCACAATT against 1110018J18Rik”, with inactive: 0.795; and CGUGGAACCUGAAUAAUGATT against Aipl1, with inactive: 2.04.

As for GGAUGAUCCAAGCAAUUGATT against Adcy2, the z-score was inactive: -1.6. GGACUCUCCCAAGUGCAAUTT against Pla2g10: the z-score was inactive: 1.05. On to CCCAUACAAAGCACUUACATT against Otub1, for which the z-score was inactive: 0.382.

As to GGAGGGCAGAUCUACGAUGTT against Aars, the z-score was inactive: -0.0519. On to “GGAUGCUUAUGAGGAAAUATT against 1700019D03Rik”, for which the z-score was inactive: 0.00975. Then GCAUAAGCCACACCCUCUGTT against Cops7a, with inactive: -1.18. The figure for GGGACUUGUUGGAUGAAACTT against Hemt1 is inactive: 0.109. Regarding “CCUACCACAUGGAUGAGUATT against 2610203E10Rik”, the z-score was inactive: 0.642. The figure for GGUGACUUUCUUUAAUCAGTT against Nt5c is inactive: 0.39; for GGAAGAGCUGAGAUUCGCCTT against Atf3 it is inactive: 0.788; for GGAACUAUGCCUCUCGUAUTT against Th it is inactive: -0.523. Then GGGAAUGACUCCACAUUGCTT against Limd1, with inactive: -1.54; and CCCUCUAAAGCAUGAGUGUTT against Phemx, with inactive: -0.528; and GACGGACUGUCCUCUAACGTT against Baalc, with inactive: 1.17. The figure for GCCAAAUGUGCGUCAUCUATT against Zdhhc25 is inactive: 1.21. As for CCCUGACCGAAACCCUCGCTT against LOC547349, the z-score is inactive: 0.629.

With “GGACAUCUGGCUAAGGAACTT against 1110051B16Rik”, the z-score was inactive: -0.717.

With GGGCUGUACUAAAAACUAATT against Olfr93, the z-score is inactive: -1.01. The figure for “CGUGCUUUCAUGUUCCCUATT against 1700018O18Rik” is inactive: -0.187; for GCUAGCUGUUGUAAAAGAATT against LOC225594 it is inactive: -0.799. Then GGAGAGAUGGUGGAUUAUATT against Col13a1, with inactive: -0.0479; and GGAAACAACCAUCGAGGUUTT against Cyp4x1, with inactive: -1.39. Then CCGGUUUAACUUCAUCAUGTT against Wdr21, with inactive: 0.15. GGAAGUGUCUUAGCACCCATT against Zfp330: the z-score was inactive: 1.11.

Turning to “CCUGGUCAAUCGAUUCAUATT against 5330416C01Rik”, the z-score was inactive: -0.336. Then GCCUCUCCUAUCCCAAUUATT against Enpp6, with inactive: 3.15; and GCCUCCUAUCCUGGGAAGATT against Prss3, with inactive: -1.14; and GGUACAAUCUUAUCUGUGGTT against Dsg1a, with inactive: -2.54. Then GGCUUUUGGUCUGAGAUGCTT against D11Moh34, with inactive: -1.44; and GGUCAUCGGACAUUAUUUATT against Slc4a10, with inactive: -0.0901. As for AGUACACUUGCUCCUUCUGTT against Rpl37a, the z-score is inactive: -2.55. Then GGUCCAUUAUGACGGCAAATT against Zfp533, with inactive: -1.22. Then “GGACCAAUGCACAGAAGUATT against 1200003C05Rik”, with inactive: 1.37. Consider “GGUGCCCAUGCUUGUAGGATT against 8030411F24Rik”, for which the z-score was inactive: 0.836. The figure for CCUUGGAUGUAUUCAUAUATT against Prkar2a is inactive: -0.376; for GGUGACGAAACUCCUAAAATT against Hars it is inactive: 0.275. The figure for GGAGACAGAAAAGAAGUUGTT against Gpr108 is inactive: -0.46; for GGAGAUUGGAAAAACCAAATT against Zfp74 it is inactive: -1.35.

With “GCACUUUCCUUUAUUGUGUTT against 5730593F17Rik”, the z-score is inactive: 1.2. Consider GGCGAAUCUUUCCAACGCGTT against Marco, for which the z-score is inactive: 0.301. Then GGCGGAACAAGAUGACUCATT against Arnt2, with inactive: 1.41. Then GCUUUACGUCAGGAGAUAATT against Pak3, with inactive: -0.838. The figure for GGUGCAGUUGAUGAUGAUUTT against AV312086 is inactive: -2.77; for GGCACAGACGGAUCAACAGTT against Clcn3 it is inactive: -2.27. For GCUCUACCUUCGCUGGAAATT against Slc7a6, the z-score was inactive: 0.523. Then GGUUGUUAGAGAUUUGACCTT against Kctd12, with inactive: -1.14.

Consider “CCUCCUUACAAGUUGAAGCTT against 5330410G16Rik”, for which the z-score is inactive: 0.6.

Consider CGCAACAGCAAAUCAUCAGTT against Ap3s1, for which the z-score was inactive: -0.0694. In the case of GGAAAUACGGCAGAACCCUTT against Kcnk9, the z-score is inactive: 0.143.

Regarding GGGAAAAGCACGUUCUUGCTT against Arl10a, the z-score is inactive: -1.66. Then GGAUUAUGGGAGAUAUAAATT against Hapln1, with inactive: 0.11. For GGUACUUCACAAUGGACAGTT against Zcchc9, the z-score was inactive: -1.25. The figure for GGAGCAUCCUGUUCUUCUATT against Actr1b is inactive: -1.63; for GGAAAUUGGUCCAGUUAUUTT against Magee1 it is inactive: 1.24; for “GAUGAUCUUUUGGAUGAACTT against 4933402P03Rik” it is inactive: 0.924. The figure for GGAAGAGGUUUUAUCAGAATT against Atpaf2 is inactive: -0.409; for GGACUACCGAACAAGAGAATT against Zfp318 it is inactive: 0.11. The figure for GGACUAACCAGAAUUUUCATT against Kcnc2 is inactive: 0.666; for GGAAUGUGUAUUCCAAAAUTT against Gp2 it is inactive: -0.01; for GGGAGGAUGGUGGUAUAACTT against Angptl2 it is inactive: -0.242. Consider GGAAGAGGAGCAAAAGCCATT against Slc34a1, for which the z-score was inactive: 1.78.

Consider GGUUAUGUACCAGCAAAGUTT against AU040950, for which the z-score was inactive: 0.132. Then CCGCGUGUUCCUUCUGAUUTT against Edg3, with inactive: 0.294; and GGAGAUAAUUCAUUAUGGCTT against Zfpm2, with inactive: 0.784; and “AGCUCACAUCGUACUGAAGTT against 1700030B21Rik”, with inactive: -0.501. The figure for “CGACUCCAAUCUACAGGUUTT against 4930527D15Rik” is inactive: 0.714. Then GGGAAGCAGUAUUUAAUCATT against Hc, with inactive: -0.234. Take “GCCUCACUUUGACUGUCGCTT against 5730494M16Rik”: the z-score was inactive: 0.656.
